Experimental data published in the supplement of paper PMC7661543.
± gives the standard deviation of the averaged measurements. The effect of the compound repeats well; differences between the knockouts mostly do not.

Legend:
[1] = tested on: HCC-38; assay: relative cell number vs DMSO control (72 h) (% of DMSO); higher = less growth inhibition (more cells)
Experimental: (§1)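 QMAP-Seq: a pool of 5 breast cancer cell lines (ZR-75-1, SKBR3, HCC-38, MDA-MB-231, BT-20), each carrying 12 doxycycline-inducible Cas9 sgRNA perturbations (11 knockouts plus non-targeting sgNT), was treated with compounds for 72 h at four 10-fold doses (10 nM-10 uM or 1 nM-1 uM range). Barcodes were amplified and sequenced, and cell number was interpolated from 293T spike-in standard curves. The result is expressed as % of the median of DMSO wells. Two biological replicates.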

[2] = tested on: BT-20; assay: as above
Experimental: as §1

COc1cc(Nc2ncc3c(n2)-c2ccc(Cl)cc2C(c2c(F)cccc2OC)=NC3)ccc1C(=O)O [Alisertib]
relative cell number
Conditions	[1]	[2]
sgRNA knockout: sgATF3, 10 nM	102 ± 3.5	112 ± 2.2
sgRNA knockout: sgATF3, 100 nM	62.33 ± 0.16	74.7 ± 20
sgRNA knockout: sgATF3, 1000 nM	50 ± 6.5	67.9 ± 18
sgRNA knockout: sgATF3, 10000 nM	47.5 ± 10	65.6 ± 17
sgRNA knockout: sgATF4, 10 nM	100 ± 5.4	112 ± 3
sgRNA knockout: sgATF4, 100 nM	71.4 ± 3.1	90 ± 2
sgRNA knockout: sgATF4, 1000 nM	53.9 ± 8	66.2 ± 24
sgRNA knockout: sgATF4, 10000 nM	43 ± 4.9	60.2 ± 3.7
sgRNA knockout: sgATF6, 10 nM	102 ± 1.9	108 ± 6.4
sgRNA knockout: sgATF6, 100 nM	49.3 ± 9.5	70.4 ± 11
sgRNA knockout: sgATF6, 1000 nM	64.4 ± 14	87.4 ± 13
sgRNA knockout: sgATF6, 10000 nM	55.3 ± 7.5	67.5 ± 5.5
sgRNA knockout: sgATG7, 10 nM	110 ± 20	104 ± 3.9
sgRNA knockout: sgATG7, 100 nM	60.5 ± 3.4	89.8 ± 4.3
sgRNA knockout: sgATG7, 1000 nM	54.4 ± 7.1	71.8 ± 25
sgRNA knockout: sgATG7, 10000 nM	48.1 ± 10	67.9 ± 8.4
sgRNA knockout: sgERN1, 10 nM	91.8 ± 3.8	105 ± 14
sgRNA knockout: sgERN1, 100 nM	62.5 ± 1.3	78.5 ± 16
sgRNA knockout: sgERN1, 1000 nM	60.4 ± 16	61.3 ± 2.3
sgRNA knockout: sgERN1, 10000 nM	50.8 ± 8.3	71.9 ± 22
sgRNA knockout: sgHSF1, 10 nM	111 ± 8.3	90.5 ± 8.3
sgRNA knockout: sgHSF1, 100 nM	57.8 ± 4	75.8 ± 1.2
sgRNA knockout: sgHSF1, 1000 nM	50.3 ± 7.9	80.7 ± 5.7
sgRNA knockout: sgHSF1, 10000 nM	51.6 ± 9.9	60.8 ± 5.5
sgRNA knockout: sgHSF2, 10 nM	106 ± 17	107 ± 2.8
sgRNA knockout: sgHSF2, 100 nM	61.8 ± 4.1	70.3 ± 10
sgRNA knockout: sgHSF2, 1000 nM	61.3 ± 18	76.7 ± 12
sgRNA knockout: sgHSF2, 10000 nM	48.5 ± 1.3	67.8 ± 29
sgRNA knockout: sgKEAP1, 10 nM	111 ± 15	95 ± 3.6
sgRNA knockout: sgKEAP1, 100 nM	44.4 ± 3.2	80 ± 12
sgRNA knockout: sgKEAP1, 1000 nM	66.1 ± 18	74.6 ± 21
sgRNA knockout: sgKEAP1, 10000 nM	58.8 ± 29	63.3 ± 13
sgRNA knockout: sgNFE2L2, 10 nM	95.4 ± 9.4	98.5 ± 3.2
sgRNA knockout: sgNFE2L2, 100 nM	64.22 ± 0.2	61.9 ± 12
sgRNA knockout: sgNFE2L2, 1000 nM	51 ± 11	83.41 ± 0.7
sgRNA knockout: sgNFE2L2, 10000 nM	42.7 ± 3.7	65.3 ± 6.1
sgRNA knockout: sgSLC35F2, 10 nM	97.9 ± 10	98.6 ± 13
sgRNA knockout: sgSLC35F2, 100 nM	57.3 ± 4.2	78.27 ± 0.37
sgRNA knockout: sgSLC35F2, 1000 nM	60.9 ± 19	74.9 ± 19
sgRNA knockout: sgSLC35F2, 10000 nM	48.6 ± 7.5	63.8 ± 5.3
sgRNA knockout: sgXBP1, 10 nM	96.4 ± 16	111 ± 6.3
sgRNA knockout: sgXBP1, 100 nM	63.9 ± 7	79.6 ± 7.2
sgRNA knockout: sgXBP1, 1000 nM	54.4 ± 6.7	77.9 ± 19
sgRNA knockout: sgXBP1, 10000 nM	47.8 ± 3.8	63.3 ± 10

CCN1CCN(c2ccc(Nc3cc(N(C)C(=O)Nc4c(Cl)c(OC)cc(OC)c4Cl)ncn3)cc2)CC1 [BGJ398]
relative cell number
Conditions	[1]	[2]
sgRNA knockout: sgATF3, 10 nM	97.7 ± 1.2	104 ± 16
sgRNA knockout: sgATF3, 100 nM	70.8 ± 7.8	99.2 ± 2.5
sgRNA knockout: sgATF3, 1000 nM	58.7 ± 1.6	90.5 ± 2
sgRNA knockout: sgATF3, 10000 nM	61.5 ± 0.72	86.5 ± 25
sgRNA knockout: sgATF4, 10 nM	90.1 ± 11	93.5 ± 2.3
sgRNA knockout: sgATF4, 100 nM	69.4 ± 4	98.7 ± 9.3
sgRNA knockout: sgATF4, 1000 nM	54.6 ± 3.2	89.6 ± 6
sgRNA knockout: sgATF4, 10000 nM	67.2 ± 0.98	90.6 ± 16
sgRNA knockout: sgATF6, 10 nM	94 ± 3.8	107 ± 25
sgRNA knockout: sgATF6, 100 nM	73.7 ± 3.8	92.6 ± 12
sgRNA knockout: sgATF6, 1000 nM	61.1 ± 8.7	76.8 ± 11
sgRNA knockout: sgATF6, 10000 nM	62.2 ± 4.4	88 ± 23
sgRNA knockout: sgATG7, 10 nM	99.8 ± 7	96.2 ± 11
sgRNA knockout: sgATG7, 100 nM	67.2 ± 2.5	98.7 ± 6
sgRNA knockout: sgATG7, 1000 nM	54.6 ± 0.15	86.7 ± 1.4
sgRNA knockout: sgATG7, 10000 nM	60.1 ± 0.63	80.3 ± 3.7
sgRNA knockout: sgERN1, 10 nM	92.1 ± 5.5	93.9 ± 2.2
sgRNA knockout: sgERN1, 100 nM	71.2 ± 2.1	88.5 ± 2
sgRNA knockout: sgERN1, 1000 nM	55.8 ± 3.6	87 ± 16
sgRNA knockout: sgERN1, 10000 nM	64.5 ± 1.3	87.1 ± 7.3
sgRNA knockout: sgHSF1, 10 nM	91.1 ± 27	89.2 ± 4.5
sgRNA knockout: sgHSF1, 100 nM	85.9 ± 6.1	86.1 ± 11
sgRNA knockout: sgHSF1, 1000 nM	68.2 ± 1.3	88.6 ± 13
sgRNA knockout: sgHSF1, 10000 nM	69.1 ± 2.5	80.8 ± 11
sgRNA knockout: sgHSF2, 10 nM	96.8 ± 1.3	100.7 ± 0.59
sgRNA knockout: sgHSF2, 100 nM	85.4 ± 5.3	97.5 ± 5.1
sgRNA knockout: sgHSF2, 1000 nM	59 ± 3	86.7 ± 13
sgRNA knockout: sgHSF2, 10000 nM	62.16 ± 0.19	93.7 ± 4
sgRNA knockout: sgKEAP1, 10 nM	122 ± 4.8	107 ± 16
sgRNA knockout: sgKEAP1, 100 nM	84.7 ± 19	81.5 ± 4
sgRNA knockout: sgKEAP1, 1000 nM	66.2 ± 28	91.8 ± 11
sgRNA knockout: sgKEAP1, 10000 nM	45.3 ± 8.5	74.1 ± 2
sgRNA knockout: sgNFE2L2, 10 nM	92.4 ± 4.6	93.7 ± 5.8
sgRNA knockout: sgNFE2L2, 100 nM	65.1 ± 1.7	89.9 ± 8.4
sgRNA knockout: sgNFE2L2, 1000 nM	52.9 ± 2.1	98.8 ± 25
sgRNA knockout: sgNFE2L2, 10000 nM	60.3 ± 5.3	96.9 ± 3.5
sgRNA knockout: sgSLC35F2, 10 nM	99.3 ± 0.29	94 ± 8.7
sgRNA knockout: sgSLC35F2, 100 nM	68 ± 2.7	111 ± 4.8
sgRNA knockout: sgSLC35F2, 1000 nM	54 ± 6.4	93.4 ± 12
sgRNA knockout: sgSLC35F2, 10000 nM	64.69 ± 0.066	99.7 ± 14
sgRNA knockout: sgXBP1, 10 nM	87.4 ± 12	110 ± 0.79
sgRNA knockout: sgXBP1, 100 nM	69.1 ± 2.8	90.4 ± 3.4
sgRNA knockout: sgXBP1, 1000 nM	56.1 ± 3.3	88.2 ± 9.4
sgRNA knockout: sgXBP1, 10000 nM	56.6 ± 3.4	96.5 ± 2.1
